Data: article doi:10.64898/2025.12.13.694125
These are yes or no findings as the source states them, for the method shown. Binding seen in cells or lysates may run through a third protein. Some binding calls cover weakened binding; strength is not graded here.

By UniProt entry, the sequences of proteins in these tests, tags left out. Residues count along the entry.
UniProt P56480, residues 47-529: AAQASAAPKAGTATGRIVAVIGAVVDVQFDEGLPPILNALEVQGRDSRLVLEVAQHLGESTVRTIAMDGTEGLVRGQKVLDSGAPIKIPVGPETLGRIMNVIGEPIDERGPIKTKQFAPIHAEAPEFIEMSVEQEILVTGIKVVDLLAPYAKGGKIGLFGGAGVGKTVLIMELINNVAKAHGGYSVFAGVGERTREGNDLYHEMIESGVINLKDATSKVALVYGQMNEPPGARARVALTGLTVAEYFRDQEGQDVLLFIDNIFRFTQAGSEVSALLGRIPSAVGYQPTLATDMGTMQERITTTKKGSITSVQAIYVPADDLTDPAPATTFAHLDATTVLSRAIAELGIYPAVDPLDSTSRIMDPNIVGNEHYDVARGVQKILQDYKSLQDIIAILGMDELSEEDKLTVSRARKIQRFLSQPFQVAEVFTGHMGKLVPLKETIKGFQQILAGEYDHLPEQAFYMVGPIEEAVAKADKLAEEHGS
UniProt Q03265, residues 44-553: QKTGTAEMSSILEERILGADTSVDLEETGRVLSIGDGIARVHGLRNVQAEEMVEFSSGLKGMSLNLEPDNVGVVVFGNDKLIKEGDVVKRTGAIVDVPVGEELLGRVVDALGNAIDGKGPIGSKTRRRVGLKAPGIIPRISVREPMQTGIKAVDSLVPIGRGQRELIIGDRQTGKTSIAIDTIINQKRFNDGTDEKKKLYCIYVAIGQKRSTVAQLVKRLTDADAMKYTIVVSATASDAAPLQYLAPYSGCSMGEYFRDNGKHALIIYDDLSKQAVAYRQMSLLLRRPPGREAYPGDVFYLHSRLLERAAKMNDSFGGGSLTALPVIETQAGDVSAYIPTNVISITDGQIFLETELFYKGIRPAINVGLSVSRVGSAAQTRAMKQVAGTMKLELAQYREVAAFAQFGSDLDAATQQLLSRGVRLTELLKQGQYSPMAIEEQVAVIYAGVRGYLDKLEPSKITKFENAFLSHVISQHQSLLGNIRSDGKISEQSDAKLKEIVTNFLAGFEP
UniProt Q8K2B3, residues 43-664: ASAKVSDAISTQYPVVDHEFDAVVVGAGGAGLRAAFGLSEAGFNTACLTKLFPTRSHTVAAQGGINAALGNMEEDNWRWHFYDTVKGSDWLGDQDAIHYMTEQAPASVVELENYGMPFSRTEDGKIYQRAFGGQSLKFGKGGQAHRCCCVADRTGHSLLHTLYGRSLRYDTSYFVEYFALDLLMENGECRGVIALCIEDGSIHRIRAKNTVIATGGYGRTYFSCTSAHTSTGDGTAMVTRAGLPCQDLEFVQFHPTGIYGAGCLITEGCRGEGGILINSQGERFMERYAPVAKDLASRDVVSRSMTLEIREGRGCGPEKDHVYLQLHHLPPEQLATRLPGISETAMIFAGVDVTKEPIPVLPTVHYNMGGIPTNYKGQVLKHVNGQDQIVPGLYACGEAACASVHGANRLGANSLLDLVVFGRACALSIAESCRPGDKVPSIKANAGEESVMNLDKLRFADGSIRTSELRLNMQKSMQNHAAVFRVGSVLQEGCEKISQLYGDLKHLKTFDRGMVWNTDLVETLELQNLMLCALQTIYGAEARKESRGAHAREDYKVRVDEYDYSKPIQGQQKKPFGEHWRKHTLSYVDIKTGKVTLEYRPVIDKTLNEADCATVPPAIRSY

Experiments:
Assay in all cases: cross-linking
[1] = target: ATP synthase F1 catalytic head β subunit (ATPB) (mouse (endogenous in heart mitochondria)) (UniProt P56480)
[2] = target: ATP synthase F1 catalytic head α subunit (ATPA) (mouse (endogenous in heart mitochondria)) (UniProt Q03265)
[3] = target: T1, ATP synthase subunit ATPG (mouse (endogenous in heart mitochondria)) (UniProt Q91VR2)
T1 sequence: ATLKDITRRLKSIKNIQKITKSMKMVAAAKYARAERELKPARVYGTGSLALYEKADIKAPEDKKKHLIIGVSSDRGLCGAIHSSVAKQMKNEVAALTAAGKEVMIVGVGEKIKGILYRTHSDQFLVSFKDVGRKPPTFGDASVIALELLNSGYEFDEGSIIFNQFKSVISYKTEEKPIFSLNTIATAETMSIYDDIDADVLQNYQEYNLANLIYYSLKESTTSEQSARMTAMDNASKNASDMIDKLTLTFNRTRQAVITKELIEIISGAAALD

[4] = target: SDHA (mouse (endogenous in heart mitochondria)) (UniProt Q8K2B3)
[5] = target: T2, malate dehydrogenase (MDHM) (mouse (endogenous in heart mitochondria)) (UniProt P08249)
T2 sequence: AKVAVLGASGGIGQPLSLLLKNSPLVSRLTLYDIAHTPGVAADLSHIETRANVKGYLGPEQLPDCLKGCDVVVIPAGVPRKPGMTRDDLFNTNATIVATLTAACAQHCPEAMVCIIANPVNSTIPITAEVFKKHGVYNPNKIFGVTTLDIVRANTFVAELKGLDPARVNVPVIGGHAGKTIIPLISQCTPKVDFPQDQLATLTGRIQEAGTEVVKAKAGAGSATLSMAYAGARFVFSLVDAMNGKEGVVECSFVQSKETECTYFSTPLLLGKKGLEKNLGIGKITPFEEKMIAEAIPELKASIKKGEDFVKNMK

[6] = target: T3, citrate synthase (CISY) (mouse (endogenous in heart mitochondria)) (UniProt Q9CZU6)
T3 sequence: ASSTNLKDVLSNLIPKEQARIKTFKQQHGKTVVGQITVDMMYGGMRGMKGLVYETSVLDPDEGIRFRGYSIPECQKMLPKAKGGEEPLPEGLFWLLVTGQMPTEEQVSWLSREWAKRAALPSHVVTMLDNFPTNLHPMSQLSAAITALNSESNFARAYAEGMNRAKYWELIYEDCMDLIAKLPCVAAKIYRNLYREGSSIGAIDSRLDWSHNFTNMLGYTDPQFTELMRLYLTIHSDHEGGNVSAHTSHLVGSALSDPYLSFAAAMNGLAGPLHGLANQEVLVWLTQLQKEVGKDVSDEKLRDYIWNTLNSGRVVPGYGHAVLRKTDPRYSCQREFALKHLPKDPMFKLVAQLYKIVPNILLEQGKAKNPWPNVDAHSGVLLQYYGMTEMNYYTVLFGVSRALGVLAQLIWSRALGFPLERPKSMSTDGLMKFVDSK

[7] = target: ATPase inhibitory factor 1 (ATIF1) (mouse (endogenous in heart mitochondria)) (UniProt O35143)
[8] = target: T4, peripheral stalk subunit ATP5J (mouse (endogenous in heart mitochondria)) (UniProt P97450)
T4 sequence: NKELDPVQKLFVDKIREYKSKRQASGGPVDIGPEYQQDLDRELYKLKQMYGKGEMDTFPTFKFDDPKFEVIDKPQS

Measured: binding

B1: malate dehydrogenase (MDHM) (enzyme, UniProt P08249 25-338)
chain: AKVAVLGASGGIGQPLSLLLKNSPLVSRLTLYDIAHTPGVAADLSHIETRANVKGYLGPEQLPDCLKGCDVVVIPAGVPRKPGMTRDDLFNTNATIVATLTAACAQHCPEAMVCIIANPVNSTIPITAEVFKKHGVYNPNKIFGVTTLDIVRANTFVAELKGLDPARVNVPVIGGHAGKTIIPLISQCTPKVDFPQDQLATLTGRIQEAGTEVVKAKAGAGSATLSMAYAGARFVFSLVDAMNGKEGVVECSFVQSKETECTYFSTPLLLGKKGLEKNLGIGKITPFEEKMIAEAIPELKASIKKGEDFVKNMK
binds: [1] | [2]

B2: ATPase inhibitory factor 1 (ATIF1) (protein, UniProt O35143 26-106)
chain: VSDSSDSMDTGAGSIREAGGAFGKREKAEEDRYFREKTKEQLAALRKHHEDEIDHHSKEIERLQKQIERHKKKIQQLKNNH
not listed: [2] | [8]
binds: all other assays above

B3: FO membrane subunit ATP8 (protein, UniProt P03930 1-67)
chain: MPQLDTSTWFITIISSMITLFILFQLKVSSQTFPLAPSPKSLTTMKVKTPWELKWTKIYLPHSLPQQ
binds: [8]
